Assay results from PMC4922016, “Loss of flotillin expression results in weakened desmosomal adhesion and Pemphigus vulgaris-like localisation of desmoglein-3 in human keratinocytes” (Scientific Reports, 2016).
These are yes or no findings as the source states them, for the method shown. For part of these data: Binding seen in cells or lysates may run through a third protein. Some results given as binding are weak or reduced against the parent protein; the word gives no strength. For part of these data: Where a sequence is shown, tags or fusion partners need not be part of it.

The chains behind the UniProt entries cited, without tags or fusion partners. Where a name states a change or a piece, a line headed by the entry shows the natural chain unless it says otherwise. Residues count along the entry.
UniProt Q02413: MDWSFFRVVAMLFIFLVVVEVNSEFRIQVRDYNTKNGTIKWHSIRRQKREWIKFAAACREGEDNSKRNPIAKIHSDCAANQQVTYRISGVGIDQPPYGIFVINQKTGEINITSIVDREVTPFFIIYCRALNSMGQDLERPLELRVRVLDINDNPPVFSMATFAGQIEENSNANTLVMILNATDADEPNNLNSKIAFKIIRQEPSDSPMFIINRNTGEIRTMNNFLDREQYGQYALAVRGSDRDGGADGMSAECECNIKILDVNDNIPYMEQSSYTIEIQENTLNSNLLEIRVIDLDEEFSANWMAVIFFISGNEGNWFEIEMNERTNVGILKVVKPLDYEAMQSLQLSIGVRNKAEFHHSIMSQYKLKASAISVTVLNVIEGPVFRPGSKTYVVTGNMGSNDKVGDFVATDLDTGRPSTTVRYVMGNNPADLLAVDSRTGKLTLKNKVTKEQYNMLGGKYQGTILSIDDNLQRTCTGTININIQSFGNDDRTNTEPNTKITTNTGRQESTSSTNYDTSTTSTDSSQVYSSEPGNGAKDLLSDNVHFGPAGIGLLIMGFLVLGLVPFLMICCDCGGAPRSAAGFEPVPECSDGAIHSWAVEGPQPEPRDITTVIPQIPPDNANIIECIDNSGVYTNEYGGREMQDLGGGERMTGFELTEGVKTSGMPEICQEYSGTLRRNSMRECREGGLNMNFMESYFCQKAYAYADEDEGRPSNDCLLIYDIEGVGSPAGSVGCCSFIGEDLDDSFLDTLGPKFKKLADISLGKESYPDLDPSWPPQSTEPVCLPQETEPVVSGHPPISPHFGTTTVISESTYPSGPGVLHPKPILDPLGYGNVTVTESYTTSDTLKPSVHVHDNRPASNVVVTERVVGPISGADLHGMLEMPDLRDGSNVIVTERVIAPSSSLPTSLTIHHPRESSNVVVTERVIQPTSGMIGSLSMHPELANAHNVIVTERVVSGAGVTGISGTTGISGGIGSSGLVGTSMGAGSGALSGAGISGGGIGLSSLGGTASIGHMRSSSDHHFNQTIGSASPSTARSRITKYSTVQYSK
GST fusion of the cytoplasmic domain of human desmoglein-1: residues 570-1049 of Q02413

T1: flotillin-1 (human (endogenous in HaCaT)) (UniProt O75955)
T1 sequence: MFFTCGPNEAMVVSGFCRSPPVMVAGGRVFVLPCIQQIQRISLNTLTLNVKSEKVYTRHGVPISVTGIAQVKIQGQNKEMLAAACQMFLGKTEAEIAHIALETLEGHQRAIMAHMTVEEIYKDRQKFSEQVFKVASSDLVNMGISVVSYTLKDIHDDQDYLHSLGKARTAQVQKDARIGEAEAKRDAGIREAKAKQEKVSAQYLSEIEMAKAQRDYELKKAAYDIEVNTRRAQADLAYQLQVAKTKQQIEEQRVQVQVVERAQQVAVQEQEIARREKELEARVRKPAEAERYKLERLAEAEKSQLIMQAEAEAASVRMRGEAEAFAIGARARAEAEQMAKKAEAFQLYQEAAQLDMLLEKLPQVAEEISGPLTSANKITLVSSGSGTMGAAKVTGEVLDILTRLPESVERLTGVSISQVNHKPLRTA

T2: flotillin-2 (human (endogenous in HaCaT)) (UniProt Q14254)
T2 sequence: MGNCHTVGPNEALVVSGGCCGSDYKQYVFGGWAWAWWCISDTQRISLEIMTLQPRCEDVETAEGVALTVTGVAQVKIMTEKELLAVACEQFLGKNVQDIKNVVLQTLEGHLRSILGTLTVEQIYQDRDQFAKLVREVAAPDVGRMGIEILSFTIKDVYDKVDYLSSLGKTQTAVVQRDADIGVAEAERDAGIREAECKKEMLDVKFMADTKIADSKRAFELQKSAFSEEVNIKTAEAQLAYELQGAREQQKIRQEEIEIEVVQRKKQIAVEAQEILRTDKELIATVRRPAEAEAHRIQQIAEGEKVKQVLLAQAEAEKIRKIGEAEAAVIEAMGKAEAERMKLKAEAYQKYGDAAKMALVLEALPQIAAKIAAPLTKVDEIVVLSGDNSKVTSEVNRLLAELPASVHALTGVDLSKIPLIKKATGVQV

T3: GST fusion of the cytoplasmic domain of human desmoglein-3 (human) (UniProt P32926)
T3 sequence: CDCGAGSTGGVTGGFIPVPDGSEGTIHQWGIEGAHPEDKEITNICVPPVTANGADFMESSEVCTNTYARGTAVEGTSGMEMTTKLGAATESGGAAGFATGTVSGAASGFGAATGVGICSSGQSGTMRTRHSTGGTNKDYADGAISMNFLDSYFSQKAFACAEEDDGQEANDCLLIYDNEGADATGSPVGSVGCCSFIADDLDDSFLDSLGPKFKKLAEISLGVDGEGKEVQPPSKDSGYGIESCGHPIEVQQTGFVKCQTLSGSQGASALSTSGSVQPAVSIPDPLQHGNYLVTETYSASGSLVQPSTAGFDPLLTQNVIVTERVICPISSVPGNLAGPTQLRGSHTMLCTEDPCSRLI

T4: Dsg3-MBP fusion protein (human) (UniProt P32926)
T4 sequence: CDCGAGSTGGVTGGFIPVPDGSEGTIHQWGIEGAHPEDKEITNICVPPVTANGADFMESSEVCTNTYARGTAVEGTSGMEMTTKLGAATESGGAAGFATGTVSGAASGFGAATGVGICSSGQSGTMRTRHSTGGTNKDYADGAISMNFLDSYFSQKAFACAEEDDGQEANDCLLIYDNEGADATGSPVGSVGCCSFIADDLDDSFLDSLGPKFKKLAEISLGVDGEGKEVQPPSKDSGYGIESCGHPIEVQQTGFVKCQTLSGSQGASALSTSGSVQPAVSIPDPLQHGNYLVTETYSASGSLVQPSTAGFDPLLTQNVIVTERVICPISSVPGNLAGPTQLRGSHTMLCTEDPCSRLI

B1: flotillin-1 (natural protein, human (endogenous in HaCaT), UniProt O75955 1-427, looked up)
chain: MFFTCGPNEAMVVSGFCRSPPVMVAGGRVFVLPCIQQIQRISLNTLTLNVKSEKVYTRHGVPISVTGIAQVKIQGQNKEMLAAACQMFLGKTEAEIAHIALETLEGHQRAIMAHMTVEEIYKDRQKFSEQVFKVASSDLVNMGISVVSYTLKDIHDDQDYLHSLGKARTAQVQKDARIGEAEAKRDAGIREAKAKQEKVSAQYLSEIEMAKAQRDYELKKAAYDIEVNTRRAQADLAYQLQVAKTKQQIEEQRVQVQVVERAQQVAVQEQEIARREKELEARVRKPAEAERYKLERLAEAEKSQLIMQAEAEAASVRMRGEAEAFAIGARARAEAEQMAKKAEAFQLYQEAAQLDMLLEKLPQVAEEISGPLTSANKITLVSSGSGTMGAAKVTGEVLDILTRLPESVERLTGVSISQVNHKPLRTA
notes: flotillin-1, endogenous in human HaCaT keratinocytes; also called Flot-1; source: endogenous, HaCaT lysate
B2: flotillin-2 (natural protein, human (endogenous in HaCaT), UniProt Q14254 1-428, looked up)
chain: MGNCHTVGPNEALVVSGGCCGSDYKQYVFGGWAWAWWCISDTQRISLEIMTLQPRCEDVETAEGVALTVTGVAQVKIMTEKELLAVACEQFLGKNVQDIKNVVLQTLEGHLRSILGTLTVEQIYQDRDQFAKLVREVAAPDVGRMGIEILSFTIKDVYDKVDYLSSLGKTQTAVVQRDADIGVAEAERDAGIREAECKKEMLDVKFMADTKIADSKRAFELQKSAFSEEVNIKTAEAQLAYELQGAREQQKIRQEEIEIEVVQRKKQIAVEAQEILRTDKELIATVRRPAEAEAHRIQQIAEGEKVKQVLLAQAEAEKIRKIGEAEAAVIEAMGKAEAERMKLKAEAYQKYGDAAKMALVLEALPQIAAKIAAPLTKVDEIVVLSGDNSKVTSEVNRLLAELPASVHALTGVDLSKIPLIKKATGVQV
notes: flotillin-2, endogenous in human HaCaT keratinocytes; also called Flot-2; source: endogenous, HaCaT lysate
B3: flotillin-2-GST fusion (rat, full length) (protein, UniProt Q9Z2S9 1-428)
chain: MGNCHTVGPNEALVVSGGCCGSDYKQYVFGGWAWAWWCISDTQRISLEIMTLQPRCEDVETAEGVALTVTGVAQVKIMTEKELLAVACEQFLGKNVQDIKNVVLQTLEGHLRSILGTLTVEQIYQDRDQFAKLVREVAAPDVGRMGIEILSFTIKDVYDKVDYLSSLGKTQTAVVQRDADIGVAEAERDAGIREAECKKEMLDVKFMADTKIADSKRAFELQKSAFSEEVNIKTAEAQLAYELQGAREQQKIRQEEIEIEVVQRKKQIAVEAQEILRTDKELIATVRRPAEAEAHRIQQIAEGEKVKQVLLAQAEAEKIRKIGEAEAAVIEAMGKAEAERMKLKAEAYQKYGDAAKMALVLEALPQIAAKISAPLTKVDEIVVLSGDNSKVTSEVNRLLAELPASVHALTGVDLSKIPLIKNATGAQV
B4: desmoglein-3 (protein, UniProt P32926 50-999)
chain: EWVKFAKPCREGEDNSKRNPIAKITSDYQATQKITYRISGVGIDQPPFGIFVVDKNTGDINITAIVDREETPSFLITCRALNAQGLDVEKPLILTVKILDINDNPPVFSQQIFMGEIEENSASNSLVMILNATDADEPNHLNSKIAFKIVSQEPAGTPMFLLSRNTGEVRTLTNSLDREQASSYRLVVSGADKDGEGLSTQCECNIKVKDVNDNFPMFRDSQYSARIEENILSSELLRFQVTDLDEEYTDNWLAVYFFTSGNEGNWFEIQTDPRTNEGILKVVKALDYEQLQSVKLSIAVKNKAEFHQSVISRYRVQSTPVTIQVINVREGIAFRPASKTFTVQKGISSKKLVDYILGTYQAIDEDTNKAASNVKYVMGRNDGGYLMIDSKTAEIKFVKNMNRDSTFIVNKTITAEVLAIDEYTGKTSTGTVYVRVPDFNDNCPTAVLEKDAVCSSSPSVVVSARTLNNRYTGPYTFALEDQPVKLPAVWSITTLNATSALLRAQEQIPPGVYHISLVLTDSQNNRCEMPRSLTLEVCQCDNRGICGTSYPTTSPGTRYGRPHSGRLGPAAIGLLLLGLLLLLLAPLLLLTCDCGAGSTGGVTGGFIPVPDGSEGTIHQWGIEGAHPEDKEITNICVPPVTANGADFMESSEVCTNTYARGTAVEGTSGMEMTTKLGAATESGGAAGFATGTVSGAASGFGAATGVGICSSGQSGTMRTRHSTGGTNKDYADGAISMNFLDSYFSQKAFACAEEDDGQEANDCLLIYDNEGADATGSPVGSVGCCSFIADDLDDSFLDSLGPKFKKLAEISLGVDGEGKEVQPPSKDSGYGIESCGHPIEVQQTGFVKCQTLSGSQGASALSTSGSVQPAVSIPDPLQHGNYLVTETYSASGSLVQPSTAGFDPLLTQNVIVTERVICPISSVPGNLAGPTQLRGSHTMLCTEDPCSRLI

How the values were obtained:
[1] = target: T1, flotillin-1 (human (endogenous in HaCaT)); experiment: co-IP; antibodies against endogenous flotillin-1 or flotillin-2; confluent HaCaT cells, 1 mg of lysate (50 mM Tris pH 7.4, 150 mM NaCl, 2 mM EDTA, 1% NP-40); Western blot for Dsg1-3; anti-c-myc as negative control
[2] = target: T2, flotillin-2 (human (endogenous in HaCaT)); experiment: as above
[3] = target: T3, GST fusion of the cytoplasmic domain of human desmoglein-3 (human); experiment: pull-down; GST-tagged cytoplasmic domains of Dsg1-3 immobilised on glutathione sepharose, HaCaT lysate (1 mg), overnight at 4 °C; 10 mM Tris-HCl pH 8.0, 150 mM NaCl, 5 mM EDTA, 0.5% Triton X-100, 60 mM N-octylglucoside; Western blot; GST as negative control; only the target purified
[4] = target: GST fusion of the cytoplasmic domain of human desmoglein-1 (human) (UniProt Q02413); experiment: as above
[5] = target: T4, Dsg3-MBP fusion protein (human); experiment: pull-down; Dsg3-MBP (5 μg) immobilised on amylose resin, eluted flotillin-GST proteins in solution; 50 mM Tris-HCl pH 7.5, 150 mM NaCl, 0.01% Triton X-100, 1 mM DTT, 1 mM EDTA, 1% BSA, on ice 2-3 h; Western blot; MBP and GST as controls; both purified

Molecule	binding [1]	binding [2]	binding [3]	binding [4]	binding [5]
desmoglein-1 (from UniProt Q02413 50-1049)	binds	binds	–	–	–
B1	–	–	binds	binds	–
B2	–	–	binds	binds	–
B3	–	–	–	–	binds
B4	binds	binds	–	–	–
